± gives the standard deviation of the averaged measurements. Most values lie within the scatter of the assay; repeated measurements hardly agree.
Compound: CC[C@@H](C)Nc1cc(C(=O)N[C@H]2C[C@H]3CC[C@@H](C2)N3c2ccc(C(=O)C3CC3)cn2)c(C)cc1C(N)=O [XL888]
Assay: phosphopeptide melting temperature shift (XL888 minus DMSO); higher = stabilised by drug treatment
Details: 100 µM; treatment time 2 h; layout: intact cells; SK-Mel 28
Description: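 Phospho-TPP in intact SK-Mel 28 cells treated with 100 uM XL888 or DMSO for 2 h, heated at 10 temperatures (37-67 C) for 3 min, soluble fraction TMT10plex-labelled and TiO2 phospho-enriched. Melting curves were fitted per phosphopeptide; the value is the melting point difference (drug minus vehicle) in each of two biological replicates.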

Amino acid sequences for entries named in this document (tags omitted). A change or cut given only in a name is not applied to a line headed by its entry.
UniProt O60271: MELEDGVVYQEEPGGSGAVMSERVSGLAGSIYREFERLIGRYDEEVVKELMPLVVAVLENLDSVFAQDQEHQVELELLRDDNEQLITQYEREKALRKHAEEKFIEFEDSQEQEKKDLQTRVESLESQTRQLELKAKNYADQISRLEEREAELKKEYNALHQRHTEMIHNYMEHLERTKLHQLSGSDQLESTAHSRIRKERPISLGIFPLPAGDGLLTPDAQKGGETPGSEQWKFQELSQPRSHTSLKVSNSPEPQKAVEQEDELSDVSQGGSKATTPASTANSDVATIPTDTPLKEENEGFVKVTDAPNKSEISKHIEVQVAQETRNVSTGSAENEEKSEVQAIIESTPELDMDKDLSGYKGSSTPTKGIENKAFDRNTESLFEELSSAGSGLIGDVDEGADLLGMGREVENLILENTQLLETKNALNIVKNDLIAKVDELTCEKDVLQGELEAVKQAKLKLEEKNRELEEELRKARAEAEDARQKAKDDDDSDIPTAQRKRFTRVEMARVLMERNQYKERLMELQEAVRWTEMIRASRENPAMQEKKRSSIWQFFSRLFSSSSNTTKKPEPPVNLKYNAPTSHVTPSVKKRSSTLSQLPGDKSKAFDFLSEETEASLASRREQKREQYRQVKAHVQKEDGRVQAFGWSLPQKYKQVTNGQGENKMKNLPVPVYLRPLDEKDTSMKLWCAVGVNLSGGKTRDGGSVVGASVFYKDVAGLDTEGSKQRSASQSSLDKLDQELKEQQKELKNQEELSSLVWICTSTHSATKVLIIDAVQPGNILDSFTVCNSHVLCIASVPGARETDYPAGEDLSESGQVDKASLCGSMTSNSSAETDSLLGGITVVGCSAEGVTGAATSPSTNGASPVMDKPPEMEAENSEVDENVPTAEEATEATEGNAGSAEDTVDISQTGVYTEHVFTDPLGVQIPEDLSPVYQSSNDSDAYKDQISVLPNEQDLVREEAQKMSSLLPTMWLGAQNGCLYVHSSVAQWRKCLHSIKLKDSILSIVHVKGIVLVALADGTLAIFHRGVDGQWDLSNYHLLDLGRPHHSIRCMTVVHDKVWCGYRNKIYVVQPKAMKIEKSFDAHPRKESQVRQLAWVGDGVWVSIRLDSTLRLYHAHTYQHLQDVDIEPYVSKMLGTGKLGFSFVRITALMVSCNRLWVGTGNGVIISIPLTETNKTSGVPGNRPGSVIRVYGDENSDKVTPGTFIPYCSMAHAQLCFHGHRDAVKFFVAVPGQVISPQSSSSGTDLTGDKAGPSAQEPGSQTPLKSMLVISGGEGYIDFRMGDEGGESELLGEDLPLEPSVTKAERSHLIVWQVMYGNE
UniProt Q9C004: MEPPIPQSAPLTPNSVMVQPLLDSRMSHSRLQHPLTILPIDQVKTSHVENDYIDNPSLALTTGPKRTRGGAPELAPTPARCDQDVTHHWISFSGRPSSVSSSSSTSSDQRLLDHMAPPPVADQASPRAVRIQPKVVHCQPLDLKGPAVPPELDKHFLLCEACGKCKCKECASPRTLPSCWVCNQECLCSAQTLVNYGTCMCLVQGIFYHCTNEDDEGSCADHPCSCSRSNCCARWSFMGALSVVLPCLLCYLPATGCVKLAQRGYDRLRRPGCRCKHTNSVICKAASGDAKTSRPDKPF
UniProt Q8IYB3: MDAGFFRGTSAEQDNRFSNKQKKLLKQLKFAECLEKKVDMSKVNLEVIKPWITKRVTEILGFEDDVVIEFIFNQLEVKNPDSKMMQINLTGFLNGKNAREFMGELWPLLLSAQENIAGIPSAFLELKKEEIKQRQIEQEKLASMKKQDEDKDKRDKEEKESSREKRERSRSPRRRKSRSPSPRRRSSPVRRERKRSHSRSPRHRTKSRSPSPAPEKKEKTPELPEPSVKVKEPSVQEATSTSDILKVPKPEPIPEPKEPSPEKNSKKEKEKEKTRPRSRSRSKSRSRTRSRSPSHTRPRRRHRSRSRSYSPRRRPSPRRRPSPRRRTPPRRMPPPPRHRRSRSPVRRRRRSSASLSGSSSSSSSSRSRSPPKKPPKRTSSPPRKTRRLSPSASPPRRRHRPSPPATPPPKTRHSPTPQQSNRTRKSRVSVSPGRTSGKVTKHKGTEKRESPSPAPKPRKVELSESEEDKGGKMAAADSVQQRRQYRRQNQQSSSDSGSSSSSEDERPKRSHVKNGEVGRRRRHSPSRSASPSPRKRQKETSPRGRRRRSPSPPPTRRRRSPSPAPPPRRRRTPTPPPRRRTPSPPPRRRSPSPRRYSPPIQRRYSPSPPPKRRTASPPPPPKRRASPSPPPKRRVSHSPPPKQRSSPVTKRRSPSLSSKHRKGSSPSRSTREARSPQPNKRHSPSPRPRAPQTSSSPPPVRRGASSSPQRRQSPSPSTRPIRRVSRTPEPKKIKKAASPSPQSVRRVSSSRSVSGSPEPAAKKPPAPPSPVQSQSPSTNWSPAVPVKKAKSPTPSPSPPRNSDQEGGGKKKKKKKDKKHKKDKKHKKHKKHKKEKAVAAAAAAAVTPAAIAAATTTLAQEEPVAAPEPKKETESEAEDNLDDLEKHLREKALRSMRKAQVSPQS
UniProt Q9UQ35: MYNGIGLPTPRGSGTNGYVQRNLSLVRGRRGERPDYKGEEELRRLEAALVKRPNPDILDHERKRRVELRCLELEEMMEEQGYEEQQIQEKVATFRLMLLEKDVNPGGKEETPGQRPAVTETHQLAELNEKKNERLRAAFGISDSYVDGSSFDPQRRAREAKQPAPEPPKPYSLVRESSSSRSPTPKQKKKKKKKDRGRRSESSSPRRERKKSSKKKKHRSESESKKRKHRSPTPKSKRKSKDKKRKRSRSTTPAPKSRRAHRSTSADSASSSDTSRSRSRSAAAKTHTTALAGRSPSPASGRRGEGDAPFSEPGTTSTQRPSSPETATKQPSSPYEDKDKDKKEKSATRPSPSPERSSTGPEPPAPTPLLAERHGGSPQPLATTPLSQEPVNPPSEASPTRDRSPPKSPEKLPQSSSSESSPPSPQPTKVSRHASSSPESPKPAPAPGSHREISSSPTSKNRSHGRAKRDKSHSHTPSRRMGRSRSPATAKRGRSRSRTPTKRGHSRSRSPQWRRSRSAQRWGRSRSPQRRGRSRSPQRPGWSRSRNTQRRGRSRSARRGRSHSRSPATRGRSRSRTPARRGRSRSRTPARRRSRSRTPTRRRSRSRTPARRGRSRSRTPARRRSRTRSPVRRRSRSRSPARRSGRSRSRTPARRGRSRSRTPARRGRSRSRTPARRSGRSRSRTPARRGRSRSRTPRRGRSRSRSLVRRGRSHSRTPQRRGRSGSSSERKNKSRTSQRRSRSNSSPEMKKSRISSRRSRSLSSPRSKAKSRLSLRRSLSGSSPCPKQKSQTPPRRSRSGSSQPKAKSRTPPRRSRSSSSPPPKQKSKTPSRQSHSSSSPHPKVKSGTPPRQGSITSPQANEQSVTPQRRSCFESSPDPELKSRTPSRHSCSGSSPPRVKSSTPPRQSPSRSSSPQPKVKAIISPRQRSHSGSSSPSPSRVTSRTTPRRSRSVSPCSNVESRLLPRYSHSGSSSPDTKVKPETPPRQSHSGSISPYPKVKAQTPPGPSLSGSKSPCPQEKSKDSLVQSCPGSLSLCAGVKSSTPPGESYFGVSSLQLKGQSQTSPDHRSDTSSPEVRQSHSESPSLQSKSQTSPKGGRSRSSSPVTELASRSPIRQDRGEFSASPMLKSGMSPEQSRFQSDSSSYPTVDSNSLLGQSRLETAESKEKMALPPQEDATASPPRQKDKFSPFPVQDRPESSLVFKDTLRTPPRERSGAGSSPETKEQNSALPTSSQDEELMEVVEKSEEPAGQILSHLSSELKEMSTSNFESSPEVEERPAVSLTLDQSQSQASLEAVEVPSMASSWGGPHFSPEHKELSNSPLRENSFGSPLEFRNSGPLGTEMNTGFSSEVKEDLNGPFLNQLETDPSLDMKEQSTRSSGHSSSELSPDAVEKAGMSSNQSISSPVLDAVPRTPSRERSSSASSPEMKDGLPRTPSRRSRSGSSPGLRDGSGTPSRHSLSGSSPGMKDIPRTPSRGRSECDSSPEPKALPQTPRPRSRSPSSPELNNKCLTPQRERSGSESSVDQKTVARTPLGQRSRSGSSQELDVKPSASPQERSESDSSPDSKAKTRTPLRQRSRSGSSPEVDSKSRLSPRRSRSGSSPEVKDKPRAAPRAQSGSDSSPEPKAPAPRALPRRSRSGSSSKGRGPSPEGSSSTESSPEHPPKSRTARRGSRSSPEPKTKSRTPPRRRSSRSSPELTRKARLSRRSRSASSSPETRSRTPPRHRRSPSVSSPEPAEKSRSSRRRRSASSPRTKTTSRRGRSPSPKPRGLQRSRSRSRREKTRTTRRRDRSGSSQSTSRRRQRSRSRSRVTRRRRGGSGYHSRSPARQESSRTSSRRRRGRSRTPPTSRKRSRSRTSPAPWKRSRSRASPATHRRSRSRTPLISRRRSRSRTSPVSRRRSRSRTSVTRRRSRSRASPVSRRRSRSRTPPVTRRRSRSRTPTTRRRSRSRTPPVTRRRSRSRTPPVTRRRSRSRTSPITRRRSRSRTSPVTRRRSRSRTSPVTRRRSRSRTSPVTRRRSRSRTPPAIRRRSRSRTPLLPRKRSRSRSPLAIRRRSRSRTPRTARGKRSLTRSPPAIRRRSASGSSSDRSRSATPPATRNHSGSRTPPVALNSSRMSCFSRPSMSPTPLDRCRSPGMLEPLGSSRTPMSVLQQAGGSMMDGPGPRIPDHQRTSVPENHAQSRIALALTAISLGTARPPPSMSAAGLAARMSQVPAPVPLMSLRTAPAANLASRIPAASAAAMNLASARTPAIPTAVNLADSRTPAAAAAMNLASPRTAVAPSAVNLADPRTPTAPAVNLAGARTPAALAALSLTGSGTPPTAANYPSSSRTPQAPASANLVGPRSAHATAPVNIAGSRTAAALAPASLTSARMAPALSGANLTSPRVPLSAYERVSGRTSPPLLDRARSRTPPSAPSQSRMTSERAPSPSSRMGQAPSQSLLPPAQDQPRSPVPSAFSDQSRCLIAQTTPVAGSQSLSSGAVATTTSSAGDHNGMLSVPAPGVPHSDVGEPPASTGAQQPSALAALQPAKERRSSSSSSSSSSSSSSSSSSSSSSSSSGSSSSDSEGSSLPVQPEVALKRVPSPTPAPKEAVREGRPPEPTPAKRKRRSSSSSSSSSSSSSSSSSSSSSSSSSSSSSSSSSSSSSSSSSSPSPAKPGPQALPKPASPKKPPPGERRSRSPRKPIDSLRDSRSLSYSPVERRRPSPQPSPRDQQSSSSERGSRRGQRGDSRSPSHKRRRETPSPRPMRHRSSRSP

| Target | phosphopeptide melting temperature shift [°C] |
| --- | --- |
| SPAG9 phosphosite_183 (phosphosite position: 183) (UniProt O60271) | 0.317 ± 0.5 |
| SPAG9 phosphosite_185 (phosphosite position: 185) (UniProt O60271) | 0.865 |
| SPAG9 phosphosite_217 (phosphosite position: 217) (UniProt O60271) | 0.788 ± 0.93 |
| SPAG9 phosphosite_815 (phosphosite position: 815) (UniProt O60271) | 1.01 |
| SPRY4 phosphosite_125 (phosphosite position: 125) (UniProt Q9C004) | 4.46 |
| SPTAN1 phosphosite_1217 (phosphosite position: 1217) (UniProt Q13813) | 1.04 ± 0.42 |
| SPTBN1 phosphosite_2169 (phosphosite position: 2169) (UniProt Q01082) | 0.2 ± 1.3 |
| SPTBN1 phosphosite_2319 (phosphosite position: 2319) (UniProt Q01082) | 1.49 ± 1.1 |
| SQSTM1 phosphosite_332 (phosphosite position: 332) (UniProt Q13501) | 0.0931 ± 0.48 |
| SQSTM1 phosphosite_339 (phosphosite position: 339) (UniProt Q13501) | 0.457 |
| SQSTM1 phosphosite_366 (phosphosite position: 366) (UniProt Q13501) | -0.504 ± 1.4 |
| SRGAP2 phosphosite_994 (phosphosite position: 994) (UniProt O75044) | -1.4 |
| SRRM1 phosphosite_389 (phosphosite position: 389) (UniProt Q8IYB3) | 0.1 |
| SRRM1 phosphosite_391 (phosphosite position: 391) (UniProt Q8IYB3) | 0.0666 |
| SRRM1 phosphosite_393 (phosphosite position: 393) (UniProt Q8IYB3) | 0.129 |
| SRRM1 phosphosite_402 (phosphosite position: 402) (UniProt Q8IYB3) | -1.45 |
| SRRM1 phosphosite_406 (phosphosite position: 406) (UniProt Q8IYB3) | -1.45 |
| SRRM1 phosphosite_452 (phosphosite position: 452) (UniProt Q8IYB3) | 1.25 ± 2 |
| SRRM1 phosphosite_549 (phosphosite position: 549) (UniProt Q8IYB3) | -0.06 ± 2.7 |
| SRRM1 phosphosite_551 (phosphosite position: 551) (UniProt Q8IYB3) | -0.06 ± 2.7 |
| SRRM1 phosphosite_560 (phosphosite position: 560) (UniProt Q8IYB3) | 0.0984 ± 0.81 |
| SRRM1 phosphosite_562 (phosphosite position: 562) (UniProt Q8IYB3) | 0.0984 ± 0.81 |
| SRRM1 phosphosite_572 (phosphosite position: 572) (UniProt Q8IYB3) | -7.05 ± 5.4 |
| SRRM1 phosphosite_574 (phosphosite position: 574) (UniProt Q8IYB3) | -7.05 ± 5.4 |

Random excerpt: three records from the list.

| Target | phosphopeptide melting temperature shift [°C] |
| --- | --- |
| SPAG9 phosphosite_183 (phosphosite position: 183) (UniProt O60271) | 0.317 ± 0.5 |
| SRRM1 phosphosite_452 (phosphosite position: 452) (UniProt Q8IYB3) | 1.25 ± 2 |
| SRRM1 phosphosite_393 (phosphosite position: 393) (UniProt Q8IYB3) | 0.129 |

The list goes on.

| Target | phosphopeptide melting temperature shift [°C] |
| --- | --- |
| SRRM1 phosphosite_581 (phosphosite position: 581) (UniProt Q8IYB3) | 2.69 |
| SRRM1 phosphosite_583 (phosphosite position: 583) (UniProt Q8IYB3) | 2.69 |
| SRRM1 phosphosite_605 (phosphosite position: 605) (UniProt Q8IYB3) | 0.647 ± 0.38 |
| SRRM1 phosphosite_607 (phosphosite position: 607) (UniProt Q8IYB3) | 0.647 ± 0.38 |
| SRRM1 phosphosite_713 (phosphosite position: 713) (UniProt Q8IYB3) | -3.02 |
| SRRM1 phosphosite_715 (phosphosite position: 715) (UniProt Q8IYB3) | -3.02 |
| SRRM1 phosphosite_769 (phosphosite position: 769) (UniProt Q8IYB3) | 3.16 ± 1.6 |
| SRRM1 phosphosite_781 (phosphosite position: 781) (UniProt Q8IYB3) | 1.6 |
| SRRM1 phosphosite_872 (phosphosite position: 872) (UniProt Q8IYB3) | -0.028 ± 0.042 |
| SRRM2 phosphosite_295 (phosphosite position: 295) (UniProt Q9UQ35) | 9.67 ± 3.7 |
| SRRM2 phosphosite_297 (phosphosite position: 297) (UniProt Q9UQ35) | 9.67 ± 3.7 |
| SRRM2 phosphosite_322 (phosphosite position: 322) (UniProt Q9UQ35) | 5.15 ± 2.4 |
| SRRM2 phosphosite_351 (phosphosite position: 351) (UniProt Q9UQ35) | 4 ± 0.95 |
| SRRM2 phosphosite_435 (phosphosite position: 435) (UniProt Q9UQ35) | 2.35 |
| SRRM2 phosphosite_436 (phosphosite position: 436) (UniProt Q9UQ35) | 2.35 |
| SRRM2 phosphosite_437 (phosphosite position: 437) (UniProt Q9UQ35) | 2.35 |
| SRRM2 phosphosite_440 (phosphosite position: 440) (UniProt Q9UQ35) | 2.45 |
| SRRM2 phosphosite_484 (phosphosite position: 484) (UniProt Q9UQ35) | 0.431 |
| SRRM2 phosphosite_486 (phosphosite position: 486) (UniProt Q9UQ35) | 0.431 |
| SRRM2 phosphosite_890 (phosphosite position: 890) (UniProt Q9UQ35) | 0.704 ± 1.5 |
| SRRM2 phosphosite_895 (phosphosite position: 895) (UniProt Q9UQ35) | 2.65 |
| SRRM2 phosphosite_970 (phosphosite position: 970) (UniProt Q9UQ35) | 2.9 ± 3.1 |
| SRRM2 phosphosite_972 (phosphosite position: 972) (UniProt Q9UQ35) | 5.87 |
| SRRM2 phosphosite_973 (phosphosite position: 973) (UniProt Q9UQ35) | 4.84 ± 0.9 |

| Target | phosphopeptide melting temperature shift [°C] |
| --- | --- |
| SRRM2 phosphosite_974 (phosphosite position: 974) (UniProt Q9UQ35) | 6.7 ± 3.7 |
| SRRM2 phosphosite_983 (phosphosite position: 983) (UniProt Q9UQ35) | 8.68 ± 2.1 |
| SRRM2 phosphosite_988 (phosphosite position: 988) (UniProt Q9UQ35) | 1.57 |
| SRRM2 phosphosite_1103 (phosphosite position: 1103) (UniProt Q9UQ35) | 2.08 |
| SRRM2 phosphosite_1177 (phosphosite position: 1177) (UniProt Q9UQ35) | 5.76 |
| SRRM2 phosphosite_1179 (phosphosite position: 1179) (UniProt Q9UQ35) | 5.85 ± 0.77 |
| SRRM2 phosphosite_1318 (phosphosite position: 1318) (UniProt Q9UQ35) | 2.008 ± 0.011 |
| SRRM2 phosphosite_1329 (phosphosite position: 1329) (UniProt Q9UQ35) | 0.458 ± 1.1 |
| SRRM2 phosphosite_1387 (phosphosite position: 1387) (UniProt Q9UQ35) | 1.44 |
| SRRM2 phosphosite_1404 (phosphosite position: 1404) (UniProt Q9UQ35) | 2.77 |
| SRRM2 phosphosite_1413 (phosphosite position: 1413) (UniProt Q9UQ35) | 2.77 |
| SRRM2 phosphosite_1672 (phosphosite position: 1672) (UniProt Q9UQ35) | 4.94 |
| SRRM2 phosphosite_1674 (phosphosite position: 1674) (UniProt Q9UQ35) | 4.73 |
| SRRM2 phosphosite_1727 (phosphosite position: 1727) (UniProt Q9UQ35) | 5.91 |
| SRRM2 phosphosite_1729 (phosphosite position: 1729) (UniProt Q9UQ35) | 5.91 |
| SRRM2 phosphosite_1731 (phosphosite position: 1731) (UniProt Q9UQ35) | 5.91 |
| SRRM2 phosphosite_1732 (phosphosite position: 1732) (UniProt Q9UQ35) | 5.91 |
| SRRM2 phosphosite_1762 (phosphosite position: 1762) (UniProt Q9UQ35) | 0.8 |
| SRRM2 phosphosite_1764 (phosphosite position: 1764) (UniProt Q9UQ35) | 0.8 |
| SRRM2 phosphosite_2121 (phosphosite position: 2121) (UniProt Q9UQ35) | 1.8 |
| SRRM2 phosphosite_2123 (phosphosite position: 2123) (UniProt Q9UQ35) | 3.23 ± 2 |
| SRRM2 phosphosite_2407 (phosphosite position: 2407) (UniProt Q9UQ35) | -1.44 |

Part of the list above, set out differently:
SRRM2 phosphosite_1729 (phosphosite position: 1729) (UniProt Q9UQ35)
  phosphopeptide melting temperature shift [°C]: 5.91
SRRM2 phosphosite_1731 (phosphosite position: 1731) (UniProt Q9UQ35)
  phosphopeptide melting temperature shift [°C]: 5.91

— the supplement of paper PMC5836539
